Measurements from PubChem BioAssay AID248 (DTP/NCI, 2004).
The list does not hold the whole screen: it is rich in T/C values a quarter to a half above the control, in often repeated tests (any T/C) and in doses without a T/C. Other doses and runs of a compound stand elsewhere. T/C: endpoint of the treated group in % of that of the vehicle group. Some doses have a count of surviving animals in place of a T/C: the source files T/C as zero there, which appears to mark a toxic dose or a test without result, not a measured value. Some doses without a T/C left all or most animals alive at the check, yet need not have been tolerated: the source hardly ever lists a survival T/C far under the control, and the zero likely stands for such cases as well. Counts of survivors are from the toxicity check (mostly the fifth day) where no day follows; animals may have died later. Schedule codes are those of the source, taken here to give the interval after Q, in days (D) or hours (H), and the number of doses after X. Some schedules carry Z or #; the key to these is not given. Some molecules as drawn cover several salts, stereoisomers or complexes of the source; a dose is that of the sample tested. Where survival is the endpoint, this PubChem deposit counts one and a half times the control or more as active, and values a quarter to a half above the control carry no call in these data; other NCI protocols may use other cut-offs.

System: L1210 leukemia ip in BDF1 mice, survival T/C
Experiment: NCI In Vivo Anticancer Drug Screen. Data for tumor model L1210 Leukemia (intraperitoneal) in B6D2F1 (BDF1) mice
Conditions: T/C endpoint: mean survival time, higher T/C = longer survival
[1] = dose: 400.0 mg/kg/injection, schedule: Q04DX002 (ip), vehicle: Klucel (hydroxypropylcellulose) (HPC)
[2] = dose: 200.0 mg/kg/injection, schedule: Q04DX002 (ip), vehicle: saline with Tween-80
[3] = dose: 400.0 mg/kg/injection, schedule: Q04DX002 (ip), vehicle: saline with Tween-80
[4] = dose: 300.0 mg/kg/injection, schedule: Q01DX001 (ip), vehicle: saline
[5] = dose: 200.0 mg/kg/injection, schedule: Q04DX003 (ip), vehicle: Klucel (hydroxypropylcellulose) (HPC)
[6] = dose: 400.0 mg/kg/injection, schedule: Q04DX003 (ip), vehicle: Klucel (hydroxypropylcellulose) (HPC)
[7] = dose: 200.0 mg/kg/injection, schedule: Q04DX003 (ip), vehicle: saline
[8] = dose: 100.0 mg/kg/injection, schedule: Q01DX009 (ip), vehicle: saline with Tween-80
[9] = dose: 200.0 mg/kg/injection, schedule: Q01DX009 (ip), vehicle: saline with Tween-80
[10] = dose: 400.0 mg/kg/injection, schedule: Q01DX009 (ip), vehicle: saline with Tween-80
[11] = dose: 400.0 mg/kg/injection, schedule: Q01DX009 (ip), vehicle: Klucel (hydroxypropylcellulose) (HPC)
[12] = dose: 200.0 mg/kg/injection, schedule: Q01DX001 (ip), vehicle: saline
[13] = dose: 400.0 mg/kg/injection, schedule: Q01DX001 (ip), vehicle: saline
[14] = dose: 100.0 mg/kg/injection, schedule: Q01DX009 (ip), vehicle: saline
[15] = dose: 400.0 mg/kg/injection, schedule: Q01DX009 (ip), vehicle: water
[16] = dose: 400.0 mg/kg/injection, schedule: Q04DX003 (ip), vehicle: saline

For `Cc1ccc2ccccc2c1`, the T/C [1] was 128 % of control.

`c1cc[c]([Sn]([S]c2nc3ccccc3s2)([c]2ccccc2)[c]2ccccc2)cc1` was tested, and the survivor count (dose: 100.0 mg/kg/injection, schedule: Q04DX002 (ip), vehicle: saline with Tween-80) was 0 of 3, the survivor count [2] was 0 of 3 and the survivor count [3] was 0 of 3.

In the case of `CCOC(=O)CC1C(C)C(C)NC(C)C1C` (stereo not given), the survivor count [4] is reported as 2 of 6.

For `CCCCCCCCCCC[CH2][Hg][Cl]`, the survivor count (dose: 12.5 mg/kg/injection, schedule: Q04DX003 (ip), vehicle: Klucel (hydroxypropylcellulose) (HPC)) was 1 of 6, the survivor count (dose: 25.0 mg/kg/injection, schedule: Q04DX003 (ip), vehicle: Klucel (hydroxypropylcellulose) (HPC)) was 0 of 6 and the survivor count (dose: 100.0 mg/kg/injection, schedule: Q04DX003 (ip), vehicle: Klucel (hydroxypropylcellulose) (HPC)) was 1 of 6. For the same compound, the survivor count [5] was 1 of 6 and the survivor count [6] was 0 of 6.

With `CCN(CC)CCOc1cc(C)ccc1C` the survivor count [7] was 1 of 6.

`CC(C)=CCC/C(C)=C/CC/C(C)=C/CC(CCN(C)C)C(=O)OC/C=C(\C)CCC=C(C)C` (stereo not given) was tested, and the survivor count [8] was 0 of 6, the survivor count [9] was 3 of 6 and the survivor count [10] was 5 of 6.

`CCO/C=N/c1oc(-c2ccccc2)nc1C#N` was tested, and the survivor count [1] was 1 of 3.

In the case of `CN(C)C(=O)NN`, the survivor count [9] is reported as 0 of 6 and the survivor count [10] is reported as 0 of 6.

`O=[N+]([O-])c1ccc(/C=C/c2ncc[nH]2)o1` was tested, and the survivor count [6] was 3 of 6.

For `NC(N)=NC=O`, the survivor count [3] was 0 of 3.

For `CC/C(C#N)=C(\C)C1CC1`, the survivor count (dose: 75.0 mg/kg/injection, schedule: Q01DX001 (ip), vehicle: other) was 0 of 6, the survivor count (dose: 150.0 mg/kg/injection, schedule: Q01DX001 (ip), vehicle: other) was 0 of 6 and the survivor count (dose: 300.0 mg/kg/injection, schedule: Q01DX001 (ip), vehicle: other) was 0 of 6.

`OCCNc1nc2ccc(Br)cc2c2ccccc12` was tested, and the survivor count (dose: 200.0 mg/kg/injection, schedule: Q01DX009 (ip), vehicle: Klucel (hydroxypropylcellulose) (HPC)) was 6 of 6 and the survivor count [11] was 2 of 6.

For `CC(=O)Oc1cc(C)c(OC(C)=O)c2ccccc12`, the survivor count [11] was 2 of 6.

With `Nc1nc(N)c(-c2ccc(Cl)c(Cl)c2)c(CBr)n1` the T/C (dose: 6.25 mg/kg/injection, schedule: Q01DX009 (ip), vehicle: saline with Tween-80) was 135 % of control, the survivor count [5] was 5 of 6 and the survivor count [6] was 3 of 6.

`O=C1NC(=O)N(c2ccc(Cl)cc2)C1=O` was tested, and the survivor count [3] was 0 of 3.

For `Cc1c(/C=N/NC(=O)CCCC(=O)N/N=C/c2c(C)n(C)n(-c3ccccc3)c2=O)c(=O)n(-c2ccccc2)n1C`, the survivor count [12] was 0 of 4 and the survivor count [13] was 0 of 4.

With `COc1ccc2c(c1)CC/C(=C\c1ccc(OCCN3CCCC3)cc1)C2=O` the survivor count (dose: 200.0 mg/kg/injection, schedule: Q04DX003 (ip), vehicle: saline with Tween-80) was 0 of 6 and the survivor count (dose: 400.0 mg/kg/injection, schedule: Q04DX003 (ip), vehicle: saline with Tween-80) was 0 of 6.

In the case of `CCN1CCC(CN2c3ccccc3Sc3ccccc32)C1` (stereo not given), the survivor count [14] is reported as 0 of 6, the survivor count [12] is reported as 0 of 6 and the survivor count [13] is reported as 0 of 6.

For `COC(=O)c1cc2ccccc2c2c1OCN(C)C2`, the survivor count [12] was 0 of 4 and the survivor count [13] was 0 of 4.

For `Cc1cccnc1C(=O)O`, the survivor count [13] was 1 of 4.

For `CS(=O)(=O)OCCCOS(C)(=O)=O`, the survivor count (dose: 300.0 mg/kg/injection, schedule: Q01DX009 (ip), vehicle: Klucel (hydroxypropylcellulose) (HPC)) was 4 of 6.

`COC(=O)c1[nH]ncc1N=NN(C)C` was tested, and the survivor count (dose: 600.0 mg/kg/injection, schedule: Q01DX001 (ip), vehicle: carboxymethylcellulose (CMC)) was 2 of 6.

With `Cc1nc(N)cc(=O)[nH]1` the survivor count [15] was 6 of 6.

With `CCCCN(CCCC)CCCNc1c2c(nc3ccccc13)CCCC2` the survivor count (dose: 100.0 mg/kg/injection, schedule: Q01DX001 (ip), vehicle: saline) was 0 of 4, the survivor count [12] was 0 of 4 and the survivor count [13] was 0 of 4.

For `Nc1nc(N)c2cc(N3CCCC3c3ccc(Cl)c(Cl)c3)ccc2n1` (stereo not given), the survivor count (dose: 12.5 mg/kg/injection, schedule: Q01DX009 (ip), vehicle: water) was 2 of 6, the survivor count (dose: 25.0 mg/kg/injection, schedule: Q01DX009 (ip), vehicle: water) was 1 of 6 and the survivor count (dose: 50.0 mg/kg/injection, schedule: Q01DX009 (ip), vehicle: water) was 0 of 6. For the same compound, the survivor count (dose: 100.0 mg/kg/injection, schedule: Q01DX009 (ip), vehicle: water) was 0 of 6, the survivor count (dose: 200.0 mg/kg/injection, schedule: Q01DX009 (ip), vehicle: water) was 0 of 6 and the survivor count [15] was 0 of 6.

With `CN(C)CC/C=C1\c2ccccc2CSc2ccccc21` the survivor count [14] was 1 of 6, the survivor count [7] was 0 of 4 and the survivor count [16] was 0 of 4.

With `Cc1ccc(-c2ccns2)cc1` the survivor count (dose: 100.0 mg/kg/injection, schedule: Q01DX001 (ip), vehicle: carboxymethylcellulose (CMC)) was 6 of 6 and the survivor count (dose: 200.0 mg/kg/injection, schedule: Q01DX001 (ip), vehicle: carboxymethylcellulose (CMC)) was 6 of 6.

In the case of `COc1ccc(OC)c(C(Nc2ccc3cn[nH]c3c2)P(=O)(c2ccccc2)c2ccccc2)c1` (stereo not given), the survivor count [8] is reported as 3 of 3, the survivor count [9] is reported as 3 of 3 and the survivor count [10] is reported as 3 of 3. For the same compound, the survivor count [3] was 3 of 3.

With `CCCCCCCCCCCCCCC(=O)[O][Hg][c]1ccccc1` the survivor count (dose: 150.0 mg/kg/injection, schedule: Q01DX001 (ip), vehicle: steroid suspending solution) was 1 of 6 and the survivor count (dose: 300.0 mg/kg/injection, schedule: Q01DX001 (ip), vehicle: steroid suspending solution) was 0 of 6.

In the case of `Cn1nc(C(=O)O)c(=O)[nH]c1=O`, the survivor count (dose: 200.0 mg/kg/injection, schedule: Q01DX Z (ip), vehicle: methylcellulose (MC)) is reported as 6 of 6.

`O=C1C2=C(C(=O)C3=C1C1CCC3C1)C1CCC2C1` was tested, and the survivor count [2] was 3 of 3.

In the case of `O=C(OC12CCN(CC1)CC2)c1ccccc1`, the survivor count (dose: 38.0 mg/kg/injection, schedule: Q01DX001 (ip), vehicle: saline) is reported as 0 of 6, the survivor count (dose: 75.0 mg/kg/injection, schedule: Q01DX001 (ip), vehicle: saline) is reported as 0 of 6 and the survivor count (dose: 150.0 mg/kg/injection, schedule: Q01DX001 (ip), vehicle: saline) is reported as 0 of 6. For the same compound, the survivor count [4] was 0 of 6.

With `O=C1CCC(=O)N1C(=O)c1ccccc1` the survivor count (dose: 338.0 mg/kg/injection, schedule: Q01DX Z (ip), vehicle: methylcellulose (MC)) was 6 of 6.

`CN1C2CCC1CC(NCCN1CC1)C2` (stereo not given) was tested, and the survivor count [12] was 0 of 6 and the survivor count [13] was 0 of 6.

In the case of `O=C(O)c1cc2oc3ccccc3c2cc1O`, the survivor count [11] is reported as 0 of 6.

With `Cc1ccc(-c2ccc3sc(C)[n+](C)c3c2)cc1` the survivor count [7] was 6 of 6 and the survivor count [16] was 0 of 6.

In the case of `CC1(C)CCOc2ccccc21`, the survivor count [9] is reported as 3 of 3.

`CP(C)(=S)P(C)(C)=S` was tested, and the survivor count (dose: 200.0 mg/kg/injection, schedule: Q04DX002 (ip), vehicle: Klucel (hydroxypropylcellulose) (HPC)) was 1 of 3 and the survivor count [1] was 1 of 3.

In the case of `N=c1ccn(C(=O)C2=Cc3ccccc3OC2)cc1`, the survivor count (dose: 40.0 mg/kg/injection, schedule: Q04DX003 (ip), vehicle: saline with Tween-80) is reported as 0 of 6.

In the case of `C[n+]1ccc(Nc2ccc(NC(=O)c3ccc(Nc4cc[n+](C)c5ccc([N+](=O)[O-])cc45)cc3)cc2)cc1`, the T/C (dose: 50.0 mg/kg/injection, schedule: Q04DX003 (ip), vehicle: saline) is reported as 144 % of control and the T/C [7] is reported as 147 % of control.
